Measured values: the supplement of paper PMC12823440, “Inhibitors supercharge kinase turnover through native proteolytic circuits” (Nature, 2025)
The list shows a part of the results. The calls rarely recur for the same compound in another form.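 Kinases, fused to nanoluciferase, were expressed in K562 cells; luminescence was measured every 4 h from 2 to 18 h as percent of control (DMSO = 100%, positive control = 0%). A time point is decreased if signal falls significantly (2 sigma). Hits were called by the authors by a rule that is not shown; the count of time points alone does not decide it.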

The chains behind the UniProt entries cited, without tags or fusion partners. Where a name states a change or a piece, a line headed by the entry shows the natural chain unless it says otherwise.
UniProt O96017, whole entry: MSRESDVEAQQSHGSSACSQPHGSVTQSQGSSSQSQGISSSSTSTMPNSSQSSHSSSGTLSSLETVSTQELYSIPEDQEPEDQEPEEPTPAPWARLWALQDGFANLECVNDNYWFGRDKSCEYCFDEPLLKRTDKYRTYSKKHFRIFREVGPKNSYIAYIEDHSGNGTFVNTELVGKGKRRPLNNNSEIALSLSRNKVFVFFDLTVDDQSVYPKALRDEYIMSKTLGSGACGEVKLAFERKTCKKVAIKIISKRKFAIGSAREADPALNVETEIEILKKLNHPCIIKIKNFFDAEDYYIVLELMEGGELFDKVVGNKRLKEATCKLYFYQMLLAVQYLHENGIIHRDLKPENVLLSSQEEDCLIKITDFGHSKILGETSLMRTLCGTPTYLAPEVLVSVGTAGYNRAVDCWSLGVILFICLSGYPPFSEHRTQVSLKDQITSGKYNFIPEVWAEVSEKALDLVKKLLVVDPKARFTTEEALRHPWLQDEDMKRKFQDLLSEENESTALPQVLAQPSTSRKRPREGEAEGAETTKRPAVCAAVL
UniProt P42680: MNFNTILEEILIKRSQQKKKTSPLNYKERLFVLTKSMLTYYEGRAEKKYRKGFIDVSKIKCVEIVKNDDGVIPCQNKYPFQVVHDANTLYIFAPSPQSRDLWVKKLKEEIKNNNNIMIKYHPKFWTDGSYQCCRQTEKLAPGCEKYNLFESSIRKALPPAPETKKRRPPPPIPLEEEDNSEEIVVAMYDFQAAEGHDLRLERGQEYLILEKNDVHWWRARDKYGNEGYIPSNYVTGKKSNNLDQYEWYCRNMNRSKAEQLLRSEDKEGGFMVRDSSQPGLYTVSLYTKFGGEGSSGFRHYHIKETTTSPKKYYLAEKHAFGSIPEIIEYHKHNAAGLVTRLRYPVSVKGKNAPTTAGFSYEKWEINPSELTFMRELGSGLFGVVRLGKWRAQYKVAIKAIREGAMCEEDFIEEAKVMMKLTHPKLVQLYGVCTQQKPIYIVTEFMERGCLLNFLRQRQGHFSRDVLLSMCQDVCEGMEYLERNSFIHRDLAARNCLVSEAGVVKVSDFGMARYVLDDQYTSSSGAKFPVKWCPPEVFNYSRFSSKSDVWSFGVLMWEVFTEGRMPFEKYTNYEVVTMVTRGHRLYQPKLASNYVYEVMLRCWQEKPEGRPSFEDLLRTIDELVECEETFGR
UniProt Q16620, whole entry, looked up: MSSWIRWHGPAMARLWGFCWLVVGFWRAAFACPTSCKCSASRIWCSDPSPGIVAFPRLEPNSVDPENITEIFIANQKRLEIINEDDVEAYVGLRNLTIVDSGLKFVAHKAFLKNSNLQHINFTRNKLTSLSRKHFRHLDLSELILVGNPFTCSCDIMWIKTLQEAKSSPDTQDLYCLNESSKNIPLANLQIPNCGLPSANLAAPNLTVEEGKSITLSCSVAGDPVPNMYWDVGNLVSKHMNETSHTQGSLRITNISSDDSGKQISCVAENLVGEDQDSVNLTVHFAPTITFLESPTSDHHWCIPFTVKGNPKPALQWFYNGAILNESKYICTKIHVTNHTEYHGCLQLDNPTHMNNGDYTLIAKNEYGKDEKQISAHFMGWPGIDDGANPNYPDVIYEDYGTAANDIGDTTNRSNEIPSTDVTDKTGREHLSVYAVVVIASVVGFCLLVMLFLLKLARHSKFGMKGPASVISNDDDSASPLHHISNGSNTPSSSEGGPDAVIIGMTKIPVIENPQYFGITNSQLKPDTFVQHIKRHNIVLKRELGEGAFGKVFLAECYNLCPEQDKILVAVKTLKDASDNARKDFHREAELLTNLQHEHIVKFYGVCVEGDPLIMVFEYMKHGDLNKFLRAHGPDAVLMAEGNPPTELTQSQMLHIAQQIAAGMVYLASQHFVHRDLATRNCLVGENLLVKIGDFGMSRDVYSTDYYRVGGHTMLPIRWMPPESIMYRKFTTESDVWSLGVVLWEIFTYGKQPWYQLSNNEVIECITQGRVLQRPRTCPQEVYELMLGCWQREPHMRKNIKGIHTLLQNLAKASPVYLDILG
UniProt Q15418, whole entry: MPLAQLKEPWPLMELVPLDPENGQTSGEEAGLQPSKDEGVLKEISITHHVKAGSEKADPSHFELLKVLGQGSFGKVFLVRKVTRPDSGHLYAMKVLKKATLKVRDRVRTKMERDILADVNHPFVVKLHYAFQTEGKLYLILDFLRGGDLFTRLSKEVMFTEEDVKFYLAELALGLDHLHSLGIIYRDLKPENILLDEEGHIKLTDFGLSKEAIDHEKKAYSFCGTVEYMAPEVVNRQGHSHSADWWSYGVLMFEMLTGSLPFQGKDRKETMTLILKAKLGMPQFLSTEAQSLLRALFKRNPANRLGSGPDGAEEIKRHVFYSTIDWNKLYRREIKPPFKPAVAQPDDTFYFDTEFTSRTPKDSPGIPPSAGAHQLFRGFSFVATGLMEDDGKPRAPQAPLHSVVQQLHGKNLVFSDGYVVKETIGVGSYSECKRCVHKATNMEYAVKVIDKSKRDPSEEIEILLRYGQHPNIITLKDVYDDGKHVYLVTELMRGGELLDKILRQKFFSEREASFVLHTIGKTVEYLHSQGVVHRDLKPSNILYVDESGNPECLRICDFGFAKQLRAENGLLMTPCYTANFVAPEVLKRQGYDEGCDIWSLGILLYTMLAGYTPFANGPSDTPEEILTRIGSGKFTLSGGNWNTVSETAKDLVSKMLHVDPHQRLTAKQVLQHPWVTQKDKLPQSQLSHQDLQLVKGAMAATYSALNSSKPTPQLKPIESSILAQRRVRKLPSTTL
UniProt P06241, whole entry, looked up: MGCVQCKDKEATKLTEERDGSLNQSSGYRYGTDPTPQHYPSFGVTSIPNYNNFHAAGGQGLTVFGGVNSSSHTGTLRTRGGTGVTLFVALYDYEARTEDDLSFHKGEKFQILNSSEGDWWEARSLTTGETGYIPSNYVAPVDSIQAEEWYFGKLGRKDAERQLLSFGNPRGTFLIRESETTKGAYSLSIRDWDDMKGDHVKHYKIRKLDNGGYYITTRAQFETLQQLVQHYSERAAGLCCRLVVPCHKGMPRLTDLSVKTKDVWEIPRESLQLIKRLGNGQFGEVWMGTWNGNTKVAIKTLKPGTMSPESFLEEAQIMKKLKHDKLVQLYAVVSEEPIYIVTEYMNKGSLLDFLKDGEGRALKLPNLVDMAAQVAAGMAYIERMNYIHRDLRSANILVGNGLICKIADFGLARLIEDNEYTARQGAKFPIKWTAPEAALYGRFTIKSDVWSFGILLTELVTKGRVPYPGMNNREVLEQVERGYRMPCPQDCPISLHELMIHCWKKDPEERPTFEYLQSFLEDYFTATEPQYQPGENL
UniProt P07949, whole entry M918T, looked up: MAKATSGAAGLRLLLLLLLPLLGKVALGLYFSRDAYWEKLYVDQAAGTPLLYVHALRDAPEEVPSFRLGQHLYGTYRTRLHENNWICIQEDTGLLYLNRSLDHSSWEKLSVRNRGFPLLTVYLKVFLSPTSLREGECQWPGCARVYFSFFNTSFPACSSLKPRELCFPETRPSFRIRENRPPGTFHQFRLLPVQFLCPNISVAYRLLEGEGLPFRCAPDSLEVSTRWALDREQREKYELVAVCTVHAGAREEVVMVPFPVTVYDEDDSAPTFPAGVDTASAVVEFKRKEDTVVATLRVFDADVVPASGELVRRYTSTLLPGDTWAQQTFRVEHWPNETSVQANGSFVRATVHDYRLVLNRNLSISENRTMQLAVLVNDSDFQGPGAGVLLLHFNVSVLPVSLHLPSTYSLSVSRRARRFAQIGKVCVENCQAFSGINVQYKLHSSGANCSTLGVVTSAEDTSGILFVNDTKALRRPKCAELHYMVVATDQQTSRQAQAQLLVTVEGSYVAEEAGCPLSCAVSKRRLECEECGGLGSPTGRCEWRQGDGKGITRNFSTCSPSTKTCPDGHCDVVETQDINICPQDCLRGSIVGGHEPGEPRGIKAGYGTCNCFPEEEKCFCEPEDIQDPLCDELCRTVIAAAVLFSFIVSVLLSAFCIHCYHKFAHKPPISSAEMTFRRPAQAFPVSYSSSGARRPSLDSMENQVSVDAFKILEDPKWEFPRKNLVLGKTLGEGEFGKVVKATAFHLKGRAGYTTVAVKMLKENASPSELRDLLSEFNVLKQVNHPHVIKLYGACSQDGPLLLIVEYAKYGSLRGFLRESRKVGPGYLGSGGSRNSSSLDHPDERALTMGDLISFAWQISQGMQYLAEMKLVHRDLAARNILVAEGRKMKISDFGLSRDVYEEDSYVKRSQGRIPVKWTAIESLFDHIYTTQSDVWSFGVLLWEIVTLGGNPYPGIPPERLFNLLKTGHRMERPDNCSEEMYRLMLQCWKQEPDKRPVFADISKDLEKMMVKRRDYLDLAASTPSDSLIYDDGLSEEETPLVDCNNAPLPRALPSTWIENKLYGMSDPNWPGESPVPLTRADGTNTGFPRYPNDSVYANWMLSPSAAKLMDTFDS

Legend:
Test in all cases: number of time points (of 5) at which kinase-Nluc abundance scored as decreased, DMSO-normalised (count); higher = more persistent destabilization
[1] = compound: C#Cc1cccc(Nc2ncnc3cc(OCCOC)c(OCCO)cc23)c1 [Desmethyl Erlotinib (hydrochloride)]; conditions: 10 µM; K562; 2-18 h
Desmethyl Erlotinib = compound: C#Cc1cccc(Nc2ncnc3cc(OCCOC)c(OCCO)cc23)c1 [Desmethyl Erlotinib]; conditions: 10 µM; K562; 2-18 h
[2] = compound: C#Cc1cccc(Nc2ncnc3cc(OCCOC)c(OCCOC)cc23)c1 [Erlotinib (Hydrochloride)]; conditions: 10 µM; K562; 2-18 h
Erlotinib = compound: C#Cc1cccc(Nc2ncnc3cc(OCCOC)c(OCCOC)cc23)c1 [Erlotinib]; conditions: 10 µM; K562; 2-18 h
Icotinib (Hydrochloride) = compound: C#Cc1cccc(Nc2ncnc3cc4c(cc23)OCCOCCOCCO4)c1 [Icotinib (Hydrochloride)]; conditions: 10 µM; K562; 2-18 h
Icotinib = compound: C#Cc1cccc(Nc2ncnc3cc4c(cc23)OCCOCCOCCO4)c1 [Icotinib]; conditions: 10 µM; K562; 2-18 h
(Z)-Guggulsterone = compound: C/C=C1\C(=O)C[C@H]2[C@@H]3CCC4=CC(=O)CC[C@]4(C)[C@H]3CC[C@]12C [(Z)-Guggulsterone]; conditions: 10 µM; K562; 2-18 h
Guggulsterone = compound: C/C=C1\C(=O)C[C@H]2[C@@H]3CCC4=CC(=O)CC[C@]4(C)[C@H]3CC[C@]12C [Guggulsterone]; conditions: 10 µM; K562; 2-18 h
[3] = compound: C=CC(=O)N1CCN(c2ncnc3c(F)c(-c4c(O)cccc4F)c(Cl)cc23)CC1; conditions: K562, 2-18 h
Mobocertinib (succinate) = compound: C=CC(=O)Nc1cc(Nc2ncc(C(=O)OC(C)C)c(-c3cn(C)c4ccccc34)n2)c(OC)cc1N(C)CCN(C)C [Mobocertinib (succinate)]; conditions: 10 µM; K562; 2-18 h
Mobocertinib = compound: C=CC(=O)Nc1cc(Nc2ncc(C(=O)OC(C)C)c(-c3cn(C)c4ccccc34)n2)c(OC)cc1N(C)CCN(C)C [Mobocertinib]; conditions: 10 µM; K562; 2-18 h
Osimertinib (dimesylate) = compound: C=CC(=O)Nc1cc(Nc2nccc(-c3cn(C)c4ccccc34)n2)c(OC)cc1N(C)CCN(C)C [Osimertinib (dimesylate)]; conditions: 2.5 µM; K562; 2-18 h
Osimertinib mesylate = compound: C=CC(=O)Nc1cc(Nc2nccc(-c3cn(C)c4ccccc34)n2)c(OC)cc1N(C)CCN(C)C [Osimertinib mesylate]; conditions: 2.5 µM; K562; 2-18 h
Osimertinib = compound: C=CC(=O)Nc1cc(Nc2nccc(-c3cn(C)c4ccccc34)n2)c(OC)cc1N(C)CCN(C)C [Osimertinib]; conditions: 2.5 µM; K562; 2-18 h
[4] = compound: C=CC(=O)Nc1cc(Nc2nccc(-c3cn(C4CC4)c4ccccc34)n2)c(OC)cc1N(C)CCN(C)C [Almonertinib (hydrochloride)]; conditions: 2.5 µM; K562; 2-18 h
Almonertinib = compound: C=CC(=O)Nc1cc(Nc2nccc(-c3cn(C4CC4)c4ccccc34)n2)c(OC)cc1N(C)CCN(C)C [Almonertinib]; conditions: 2.5 µM; K562; 2-18 h
AV-412 (free base) = compound: C=CC(=O)Nc1cc2c(Nc3ccc(F)c(Cl)c3)ncnc2cc1C#CC(C)(C)N1CCN(C)CC1 [AV-412 (free base)]; conditions: 2.5 µM; K562; 2-18 h
[5] = compound: C=CC(=O)Nc1cc2c(Nc3ccc(F)c(Cl)c3)ncnc2cc1C#CC(C)(C)N1CCN(C)CC1; conditions: 2.5 µM; K562; 2-18 h
[6] = compound: CC(=O)N[C@H](Cc1ccc(O)cc1)C(=O)N[C@H](CCCN=C(N)N)C(=O)N[C@H](Cc1ccccc1)C(N)=O; conditions: 10 µM; K562; 2-18 h
[7] = compound: CC(=O)Nc1cccc(-n2c(=O)n(C3CC3)c(=O)c3c(Nc4ccc(I)cc4F)n(C)c(=O)c(C)c32)c1 [Trametinib (DMSO solvate)]; conditions: 10 µM; K562; 2-18 h

Target | number of time points [1] | number of time points (Desmethyl Erlotinib) | number of time points [2] | number of time points (Erlotinib) | number of time points (Icotinib (Hydrochloride)) | number of time points (Icotinib) | number of time points ((Z)-Guggulsterone) | number of time points (Guggulsterone) | number of time points ([3]; 2.5 µM) | number of time points ([3]; 10 µM) | number of time points (Mobocertinib (succinate)) | number of time points (Mobocertinib) | number of time points (Osimertinib (dimesylate)) | number of time points (Osimertinib mesylate) | number of time points (Osimertinib) | number of time points [4] | number of time points (Almonertinib) | number of time points (AV-412 (free base)) | number of time points [5] | number of time points [6] | number of time points [7]
CHEK2 (UniProt O96017) | 0 | 0 | 0 | 0 | 0 | 0 | 0 | 0 | 0 | 0 | 0 | 0 | 0 | 0 | 0 | 0 | 0 | 0 | 0 | 0 | 0
TEC (UniProt P42680) | 0 | 0 | 0 | 0 | 0 | 0 | 0 | 0 | 0 | 0 | 0 | 0 | 0 | 0 | 0 | 0 | 0 | 0 | 0 | 0 | 0
NTRK2 (UniProt Q16620) | 0 | 0 | 0 | 0 | – | 0 | 0 | 0 | 1 | 0 | 0 | 0 | 0 | 0 | 0 | 0 | 0 | 0 | 0 | 0 | 0
RPS6KA1 (UniProt Q15418) | 0 | 0 | 0 | 0 | 0 | 0 | 0 | 0 | 0 | 0 | 0 | 0 | 0 | 0 | 0 | 0 | 0 | 0 | 0 | 0 | 0
FYN (UniProt P06241) | 0 | 1 | 0 | 0 | 0 | 0 | 0 | 0 | 0 | 0 | 0 | 0 | 0 | 0 | 0 | 1 | 0 | 4 | 4 | 0 | 0
RET_M918T (clone: RET_mut) (UniProt P07949) | 0 | 0 | 0 | 0 | 0 | 0 | 0 | 0 | 0 | 0 | 0 | 0 | 0 | 0 | 0 | 0 | 0 | 0 | 0 | 0 | 0
EGFR_T790M (UniProt P00533) | 0 | 0 | – | – | 0 | 0 | 0 | 0 | 0 | 0 | 0 | 0 | – | – | – | 0 | 0 | 0 | 0 | 0 | 0
ZAK (UniProt Q9NYL2) | 0 | 0 | 0 | 0 | 0 | 0 | 0 | 0 | 0 | 0 | 0 | 0 | 0 | 0 | 0 | 0 | 0 | 0 | 0 | 0 | 0

Single values from the results shown:
number of time points (Guggulsterone) with CHEK2 (UniProt O96017) is entered as 0
number of time points (Desmethyl Erlotinib) with TEC (UniProt P42680) is entered as 0
